# Measurements as given in the supplement of paper PMC8728848.
# The other results are listed elsewhere or left out.
# Assays:
# Assay in all cases: glycan array binding signal (z-score within array); higher = stronger binding
# Details in all cases: glycan notation: IUPAC condensed, linker removed
# [1] = molecular target: Gal(b1-3)GlcNAc(b1-3)Gal(b1-4)[Fuc(a1-3)]GlcNAc(b1-6)[Gal(b1-3)GlcNAc(b1-3)]Gal(b1-4)Glc
# In short: (§1)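 Arrays were curated from the Consortium for Functional Glycomics database, 3228 in total, and kept only where the protein sequence was available. Binding is expressed as a within-array Z-score. This score was averaged across arrays of the same protein sequence at different concentrations or buffers and across linkers, and negative values can be read as non-binding.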
# [2] = molecular target: Gal(b1-3)GlcNAc(b1-3)GalNAc
# In short: as §1
# [3] = molecular target: Gal(b1-3)GlcNAc(b1-6)Gal(b1-4)GlcNAc
# In short: as §1
# [4] = molecular target: Gal(b1-3)GlcNAc(b1-6)GalNAc
# In short: as §1
# [5] = molecular target: Gal(b1-3)GlcNAc(b1-6)[Gal(b1-3)]GalNAc
# In short: as §1
# Gal(b1-3)GlcNAc6S = molecular target: Gal(b1-3)GlcNAc6S
# In short: as §1
# [6] = molecular target: Gal(b1-3)[Fuc(a1-4)]GlcNAc
# In short: as §1
# [7] = molecular target: Gal(b1-3)[Fuc(a1-4)]GlcNAc(b1-2)Man
# In short: as §1
# [8] = molecular target: Gal(b1-3)[Fuc(a1-4)]GlcNAc(b1-2)Man(a1-3)[Gal(b1-3)[Fuc(a1-4)]GlcNAc(b1-2)Man(a1-6)]Man(b1-4)GlcNAc(b1-4)[Fuc(a1-6)]GlcNAc
# In short: as §1
# [9] = molecular target: Gal(b1-3)[Fuc(a1-4)]GlcNAc(b1-3)Gal(b1-3)[Fuc(a1-4)]GlcNAc
# In short: as §1
# [10] = molecular target: Gal(b1-3)[Fuc(a1-4)]GlcNAc(b1-3)Gal(b1-4)GlcNAc
# In short: as §1
# [11] = molecular target: Gal(b1-3)[Fuc(a1-4)]GlcNAc(b1-3)Gal(b1-4)[Fuc(a1-3)]GlcNAc
# In short: as §1
# [12] = molecular target: Gal(b1-3)[Fuc(a1-4)]GlcNAc(b1-6)GalNAc
# In short: as §1
# [13] = molecular target: Gal(b1-3)[GlcNAc(b1-6)]GalNAc
# In short: as §1
# [14] = molecular target: Gal(b1-3)[Neu5Ac(a2-6)]GalNAc
# In short: as §1
# [15] = molecular target: Gal(b1-3)[Neu5Ac(a2-6)]GlcNAc(b1-4)Gal(b1-4)Glc
# In short: as §1
# [16] = molecular target: Gal(b1-3)[Neu5Ac(a2-6)]GlcNAc(b1-6)Gal(b1-4)Glc
# In short: as §1
# [17] = molecular target: Gal(b1-3)[Neu5Ac(b2-6)]GalNAc
# In short: as §1
# Gal(b1-4)Gal = molecular target: Gal(b1-4)Gal
# In short: as §1
# [18] = molecular target: Gal(b1-4)GalNAc(a1-3)[Fuc(a1-2)]Gal(b1-4)GlcNAc
# In short: as §1
# [19] = molecular target: Gal(b1-4)GalNAc(b1-3)[Fuc(a1-2)]Gal(b1-4)GlcNAc
# In short: as §1
# Gal(b1-4)Glc = molecular target: Gal(b1-4)Glc
# In short: as §1
# Gal(b1-4)Glc6S = molecular target: Gal(b1-4)Glc6S
# In short: as §1
# Gal(b1-4)GlcNAc = molecular target: Gal(b1-4)GlcNAc
# In short: as §1
# [20] = molecular target: Gal(b1-4)GlcNAc(a1-6)Gal(b1-4)GlcNAc
# In short: as §1
# Gal(b1-4)GlcNAc(b1-2)Man = molecular target: Gal(b1-4)GlcNAc(b1-2)Man
# In short: as §1
# [21] = molecular target: Gal(b1-4)GlcNAc(b1-2)Man(a1-3)Man(b1-4)GlcNAc(b1-4)GlcNAc
# In short: as §1
# [22] = molecular target: Gal(b1-4)GlcNAc(b1-2)Man(a1-3)[Gal(b1-4)GlcNAc(b1-2)Man(a1-6)]Man(b1-4)GlcNAc(b1-4)GlcNAc
# In short: as §1
# [23] = molecular target: Gal(b1-4)GlcNAc(b1-2)Man(a1-3)[Gal(b1-4)GlcNAc(b1-2)Man(a1-6)]Man(b1-4)GlcNAc(b1-4)[Fuc(a1-6)]GlcNAc
# In short: as §1
# [24] = molecular target: Gal(b1-4)GlcNAc(b1-2)Man(a1-3)[Gal(b1-4)GlcNAc(b1-2)Man(a1-6)][Gal(b1-4)GlcNAc(b1-4)]Man(b1-4)GlcNAc(b1-4)[Fuc(a1-6)]GlcNAc
# In short: as §1
# [25] = molecular target: Gal(b1-4)GlcNAc(b1-2)Man(a1-3)[Gal(b1-4)GlcNAc(b1-2)Man(a1-6)][GlcNAc(b1-4)]Man(b1-4)GlcNAc(b1-4)[Fuc(a1-6)]GlcNAc
# In short: as §1
# [26] = molecular target: Gal(b1-4)GlcNAc(b1-2)Man(a1-3)[GlcNAc(b1-2)Man(a1-6)]Man(b1-4)GlcNAc(b1-4)GlcNAc
# In short: as §1
# [27] = molecular target: Gal(b1-4)GlcNAc(b1-2)Man(a1-3)[GlcNAc(b1-4)][Gal(b1-4)GlcNAc(b1-2)Man(a1-6)]Man(b1-4)GlcNAc(b1-4)GlcNAc
# In short: as §1
# [28] = molecular target: Gal(b1-4)GlcNAc(b1-2)Man(a1-3)[Man(a1-6)]Man(b1-4)GlcNAc(b1-4)GlcNAc
# In short: as §1
# [29] = molecular target: Gal(b1-4)GlcNAc(b1-2)Man(a1-6)Man(b1-4)GlcNAc(b1-4)GlcNAc
# In short: as §1
# [30] = molecular target: Gal(b1-4)GlcNAc(b1-2)Man(a1-6)[GlcNAc(b1-2)Man(a1-3)]Man(b1-4)GlcNAc(b1-4)GlcNAc
# In short: as §1
# [31] = molecular target: Gal(b1-4)GlcNAc(b1-2)Man(a1-6)[Man(a1-3)]Man(b1-4)GlcNAc(b1-4)GlcNAc
# In short: as §1
# [32] = molecular target: Gal(b1-4)GlcNAc(b1-2)[Gal(b1-4)GlcNAc(b1-4)]Man(a1-3)[Gal(b1-4)GlcNAc(b1-2)Man(a1-6)]Man(b1-4)GlcNAc(b1-4)GlcNAc
# In short: as §1
# [33] = molecular target: Gal(b1-4)GlcNAc(b1-2)[Gal(b1-4)GlcNAc(b1-4)]Man(a1-3)[Gal(b1-4)GlcNAc(b1-2)[Gal(b1-4)GlcNAc(b1-6)]Man(a1-6)]Man(b1-4)GlcNAc(b1-4)GlcNAc
# In short: as §1
# [34] = molecular target: Gal(b1-4)GlcNAc(b1-2)[Gal(b1-4)GlcNAc(b1-4)]Man(a1-3)[GlcNAc(b1-4)][Gal(b1-4)GlcNAc(b1-2)Man(a1-6)]Man(b1-4)GlcNAc(b1-4)GlcNAc
# In short: as §1
# [35] = molecular target: Gal(b1-4)GlcNAc(b1-2)[Gal(b1-4)GlcNAc(b1-4)]Man(a1-3)[GlcNAc(b1-4)][Gal(b1-4)GlcNAc(b1-2)[Gal(b1-4)GlcNAc(b1-6)]Man(a1-6)]Man(b1-4)GlcNAc(b1-4)GlcNAc
# In short: as §1
# [36] = molecular target: Gal(b1-4)GlcNAc(b1-2)[Gal(b1-4)GlcNAc(b1-6)]Man(a1-6)[Gal(b1-4)GlcNAc(b1-2)Man(a1-3)]Man(b1-4)GlcNAc(b1-4)GlcNAc
# In short: as §1
# [37] = molecular target: Gal(b1-4)GlcNAc(b1-2)[Gal(b1-4)GlcNAc(b1-6)]Man(a1-6)[Gal(b1-4)GlcNAc(b1-2)Man(a1-3)]Man(b1-4)GlcNAc(b1-4)[Fuc(a1-6)]GlcNAc
# In short: as §1
# [38] = molecular target: Gal(b1-4)GlcNAc(b1-2)[Gal(b1-4)GlcNAc(b1-6)]Man(a1-6)[GlcNAc(b1-4)][Gal(b1-4)GlcNAc(b1-2)Man(a1-3)]Man(b1-4)GlcNAc(b1-4)GlcNAc
# In short: as §1
# [39] = molecular target: Gal(b1-4)GlcNAc(b1-2)[Gal(b1-4)GlcNAc(b1-6)]Man(a1-6)[GlcNAc(b1-4)][Gal(b1-4)GlcNAc(b1-2)[Gal(b1-4)GlcNAc(b1-4)]Man(a1-3)]Man(b1-4)GlcNAc(b1-4)[Fuc(a1-6)]GlcNAc
# In short: as §1
binder,measurement,setting,value
"Endo180d1-D4 (Homo sapiens), Q9UBG0 (protein) MGPGRPAPAPWPRHLLRCVLLLGCLHLGRPGAPGDAALPEPNVFLIFSHGLQGCLEAQGGQVRVTPACNTSLPAQRWKWVSRNRLFNLGTMQCLGTGWPGTNTTASLGMYECDREALNLRWHCRTLGDQLSLLLGARTSNISKPGTLERGDQTRSGQWRIYGSEEDLCALPYHEVYTIQGNSHGKPCTIPFKYDNQWFHGCTSTGREDGHLWCATTQDYGKDERWGFCPIKSNDCETFWDKDQLTDSCYQFNFQSTLSWREAWASCEQQGADLLSITEIHEQTYINGLLTGYSSTLWIGLNDLDTSGGWQWSDNSPLKYLNWESDQPDNPSEENCGVIRTESSGGWQNRDCSIALPYVCKKKPNATAEPTPPDRWANVKVECEPSWQPFQGHCYRLQAEKRSWQESKKACLRGGGDLVSIHSMAELEFITKQIKQEVEELWIGLNDLKLQMNFEWSDGSLVSFTHWHPFEPNNFRDSLEDCVTIWGPEGRWNDSPCNQSLPSICKKAGQLSQGAAEEDHGCRKGWTWHSPSCYWLGEDQVTYSEARRLCTDHGSQLVTITNRFEQAFVSSLIYNWEGEYFWTALQDLNSTGSFFWLSGDEVMYTHWNRDQPGYSRGGCVALATGSAMGLWEVKNCTSFRARYICRQSLGTPVTPELPGPDPTPSLTGSCPQGWASDTKLRYCYKVFSSERLQDKKSWVQAQGACQELGAQLLSLASYEEEHFVANMLNKIFGESEPEIHEQHWFWIGLNRRDPRGGQSWRWSDGVGFSYHNFDRSRHDDDDIRGCAVLDLASLQWVAMQCDTQLDWICKIPRGTDVREPDDSPQGRREWLRFQEAEYKFFEHHSTWAQAQRICTWFQAELTSVHSQAELDFLSHNLQKFSRAQEQHWWIGLHTSESDGRFRWTDGSIINFISWAPGKPRPVGKDKKCVYMTASREDWGDQRCLTALPYICKRSNVTKETQPPDLPTTALGGCPSDWIQFLNKCFQVQGQEPQSRVKWSEAQFSCEQQEAQLVTITNPLEQAFITASLPNVTFDLWIGLHASQRDFQWVEQEPLMYANWAPGEPSGPSPAPSGNKPTSCAVVLHSPSAHFTGRWDDRSCTEETHGFICQKGTDPSLSPSPAALPPAPGTELSYLNGTFRLLQKPLRWHDALLLCESHNASLAYVPDPYTQAFLTQAARGLRTPLWIGLAGEEGSRRYSWVSEEPLNYVGWQDGEPQQPGGCTYVDVDGAWRTTSCDTKLQGAVCGVSSGPPPPRRISYHGSCPQGLADSAWIPFREHCYSFHMELLLGHKEARQRCQRAGGAVLSILDEMENVFVWEHLQSYEGQSRGAWLGMNFNPKGGTLVWQDNTAVNYSNWGPPGLGPSMLSHNSCYWIQSNSGLWRPGACTNITMGVVCKLPRAEQSSFSPSALPENPAALVVVLMAVLLLLALLTAALILYRRRQSIERGAFEGARYSRSSSSPTEATEKNILVSDMEMNEQQE",glycan array binding signal (z-score),[1],-0.247
same,glycan array binding signal (z-score),[2],-0.378
same,glycan array binding signal (z-score),[3],-0.754
same,glycan array binding signal (z-score),[4],1.49
same,glycan array binding signal (z-score),[5],-0.544
same,glycan array binding signal (z-score),Gal(b1-3)GlcNAc6S,-0.333
same,glycan array binding signal (z-score),[6],-0.273
same,glycan array binding signal (z-score),[7],0.495
same,glycan array binding signal (z-score),[8],-0.269
same,glycan array binding signal (z-score),[9],3.87
same,glycan array binding signal (z-score),[10],-0.188
same,glycan array binding signal (z-score),[11],-0.181
same,glycan array binding signal (z-score),[12],0.211
same,glycan array binding signal (z-score),[13],-0.385
same,glycan array binding signal (z-score),[14],0.102
same,glycan array binding signal (z-score),[15],-0.7
same,glycan array binding signal (z-score),[16],-0.235
same,glycan array binding signal (z-score),[17],0.381
same,glycan array binding signal (z-score),Gal(b1-4)Gal,1.45
same,glycan array binding signal (z-score),[18],-0.236
same,glycan array binding signal (z-score),[19],0.107
same,glycan array binding signal (z-score),Gal(b1-4)Glc,0.014
same,glycan array binding signal (z-score),Gal(b1-4)Glc6S,0.158
same,glycan array binding signal (z-score),Gal(b1-4)GlcNAc,-0.303
same,glycan array binding signal (z-score),[20],-0.98
same,glycan array binding signal (z-score),Gal(b1-4)GlcNAc(b1-2)Man,-0.181
same,glycan array binding signal (z-score),[21],0.985
same,glycan array binding signal (z-score),[22],-0.557
same,glycan array binding signal (z-score),[23],0.329
same,glycan array binding signal (z-score),[24],0.164
same,glycan array binding signal (z-score),[25],-1.03
same,glycan array binding signal (z-score),[26],0.022
same,glycan array binding signal (z-score),[27],-0.243
same,glycan array binding signal (z-score),[28],-0.039
same,glycan array binding signal (z-score),[29],0.463
same,glycan array binding signal (z-score),[30],-0.638
same,glycan array binding signal (z-score),[31],1.42
same,glycan array binding signal (z-score),[32],0.799
same,glycan array binding signal (z-score),[33],-0.428
same,glycan array binding signal (z-score),[34],0.374
same,glycan array binding signal (z-score),[35],-2.45
same,glycan array binding signal (z-score),[36],-1.4
same,glycan array binding signal (z-score),[37],-0.506
same,glycan array binding signal (z-score),[38],-0.127
same,glycan array binding signal (z-score),[39],1.09
